Test results taken from patent US11427783B2, “Perfuming compositions” (Firmenich SA, priority 2016, dated 2022).

Assay: Volatility of perfuming compounds in air
Format: physicochemical

Compound: CCCCCCCC1CCC(=O)O1 (racemic) [(+−)-5-heptyldihydro-2(3H)-furanone]
- Volatility (μg/l air): 3.67 μg/l air
